Measured values taken from patent publication EP4644375A1, “SUBSTITUTED HYDROQUINOLINES FOR THE TREATMENT OF GLIOBLASTOMA MULTIFORME” (Molius Saglik Teknolojileri Anonim Sirketi, priority 2024, dated 2025).
For part of these data: The name of at least one read-out is uncertain. Some entries repeat one wording, which the source may state once for all of them. For part of these data: For at least one compound, name, drawing or mass did not settle the structure.

Key:
[1] = PAMPA permeability assay, BBB mimicking membrane; assay type: in vitro ADME; settings: 500 µM, 18 hours, 37 °C
GBM xenograft rat model [2] = experiment: In vivo GBM rat model: MRI analysis of tumor volumes; settings: GBM rats, 30 mg/kg oral, 5 days
Description: (§1) An in Vivo study was performed to assess the therapeutic potential of TR-G002, TR-G045, TR-G053, TR-G066, TR-G071 and TR-G091 in the GBM xenograft rat model when administered orally by gavage for five consecutive days. 152 female rats of the Sprague Dawley strain were allocated to the study. Six groups of sixteen females were given dose of 30 mg/kg of the respective target compounds. […] The study design can be seen in Fig. 11 and Table 10.
Female Sprague Dawley rats (age: 6-8 weeks; weight: 255-310 g; ATADEM, Erzurum, Turkey) were utilized in the study. Rats underwent anaesthesia with 5% isoflurane, maintained at 2% isoflurane (1 L/min oxygen), and were positioned in a stereotactic frame for cell implantation (Stoelting Co., IL). […] A burr hole was drilled 1-mm anterior and 3-mm lateral to the right bregma. A microsyringe (Hamilton 1700 series) containing 5×10^4 U87-MG cells suspended in 5 µL of medium at 37 °C was advanced to a depth of 4 mm into the brain. The cells were injected at a rate of 3 µL/ min. […]
The anaesthetic was administered via an intraperitoneal route on animals fixed in the supine position with parallel hind limbs. […] One radiologist calculated the tumour volume - manually measuring tumour length (L), width (W), and height (H) - and then calculated the tumour volume using the formula 0.5236 × L × W × H (Stuppner S et al., 2020).

NOP10 = experiment: In vivo GBM rat model: double immunofluorescence examination; settings: neurons, brain tissues, GBM rats, 30 mg/kg oral, 5 days
Description: (§2) In immunofluorescence examinations, primary antibody (NOP10 Cat no: ab134902 dilution ratio: 1/100) was applied to tissues and incubated according to the instructions. A fluorescent secondary antibody (FITC Cat No: ab6785 dilution Ratio: 1/1000 UK) was then applied and incubated in the dark for 45 minutes. Afterward, a second primary antibody (H2A.X Cat no: sc-517336 dilution ratio: 1/100) was applied and incubated according to the instructions. A different fluorescent secondary antibody (Texas Red Cat No: ab6719 dilution Ratio: 1/1000 UK) was applied and incubated in the dark for 45 minutes. Finally, DAPI (Cat no: D1306 dilution ratio: 1/200 UK) was applied to the sections for 5 minutes in the dark, followed by covering the tissues with coverslips. The stained tissues were examined under a fluorescence attachment-equipped microscope (Zeiss AXIO, Germany).
(§3) Individual body weights were manually calculated. Group mean body weights; group mean body weight changes and organ weights were also manually calculated without statistical analysis. To determine the density of positive staining from immunohistochemical and immunofluorescence staining images, five randomly selected areas were evaluated using ZEISS Zen Imaging Software. Data were statistically defined as mean and standard deviation (mean ± SD) for the percentage of the area. […]

H2A.X = experiment: as above; settings: neurons, brain tissues, GBM rats, 30 mg/kg oral, 5 days
Description: as §2, §3

GBM xenograft rat model [3] = experiment: In vivo GBM rat model: histopathological examination of brain tissues; settings: H&E, GBM rats, 30 mg/kg oral, 5 days
Description: as §1
Female Sprague Dawley rats (age: 6-8 weeks; weight: 255-310 g; ATADEM, Erzurum, Turkey) were utilized in the study. Rats underwent anaesthesia with 5% isoflurane, maintained at 2% isoflurane (1 L/min oxygen), and were positioned in a stereotactic frame for cell implantation (Stoelting Co., IL). […] A burr hole was drilled 1-mm anterior and 3-mm lateral to the right bregma. A microsyringe (Hamilton 1700 series) containing 5×10^4 U87-MG cells suspended in 5 µL of medium at 37 °C was advanced to a depth of 4 mm into the brain. The cells were injected at a rate of 3 µL/ min. Bone wax was used to fill the burr hole to prevent cell suspension reflux. The incision was sutured, and 1 mL of Meloxicam (5 mg/mL; Metacam, Boehringer Ingelheim Vetmedica, Ingelheim, Germany) was administered via a subcutaneous injection.
Fourteen days after inoculation, tumor development in rats was visualized and confirmed through magnetic resonance imaging (MRI). Rats confirmed to have developed tumors were then distributed into six different groups for treatment. […] 9 days after the final treatment dose, the rats underwent another MRI scan and blood and brain samples were taken under anaesthesia.
Brain tissue samples were fixed in a 10% buffered formaldehyde solution. After fixation, the tissues were processed through graded alcohol and xylene series and embedded in paraffin blocks. Sections of 5 µm thickness were taken from the paraffin blocks at intervals of 50-100 µm. Hematoxylin and eosin staining was performed on these sections to evaluate histopathological changes. Histopathological findings included tumor focus size, necrotic area, vascular proliferation, and cellular proliferation patterns. Tumor focus size was categorized as follows based on the diameter measured with a 4X objective on the microscope: >3500 µm was considered very severe, 3499-2000 µm severe, 1999-1000 µm moderate, 999-500 µm mild, and <500 µm very mild. Necrotic area size was classified based on the diameter of necrosis: >1500 µm as very severe, 1499-1000 µm severe, 999-500 µm moderate, 499-200 µm mild, and <199 µm very mild.

Ki67 = experiment: In vivo GBM rat model: immunohistochemical examination; settings: tumor cells, brain tissues, GBM rats, 30 mg/kg oral, 5 days
Text: (§4) For immunohistochemical examinations, primary antibodies (Ki67 Cat no: ab15580 dilution ratio: 1/100; CMPK2 Cat no: PA5-34461, dilution ratio: 1/100, GFAP Cat no: ab6842 dilution ratio: 1/100) were used. 3-3' Diaminobenzidine (DAB) was used as chromogen. Mayer's hematoxylin was used for counterstaining. Sections were examined under a light microscope (Zeiss AXIO, Germany).
(§5) Individual body weights were manually calculated. Group mean body weights; group mean body weight changes and organ weights were also manually calculated without statistical analysis. To determine the density of positive staining from immunohistochemical and immunofluorescence staining images, five randomly selected areas were evaluated using ZEISS Zen Imaging Software. Data were statistically defined as mean and standard deviation (mean ± SD) for the percentage of the area. One-way ANOVA followed by the Tukey test was performed to compare immunoreactive cells and immune-positive stained areas with healthy controls. GraphPad Prism software was used for analysis.

CMPK2 = experiment: as above; settings: tumor cells, brain tissues, GBM rats, 30 mg/kg oral, 5 days
Text: as §4, §5

GFAP = experiment: as above; settings: brain tissues, GBM rats, 30 mg/kg oral, 5 days
Text: as §4, §5

## O=C(COc1ccc2c(c1)CCC(=O)N2)N/N=C/C1CCCCC1 [TR-G029, (E)-N'-(cyclohexylmethylene)-2-((2-oxo-1,2,3,4-tetrahydroquinolin-6-yl)oxy)acetohydrazide]
[1]
  permeability through the blood-brain barrier mimicking membrane: middle permeability

## C=CCOc1ccc2c(c1)CCC(=O)N2 [TR-G014, 6-(allyloxy)-3,4-dihydroquinolin-2(1H)-one]
[1]
  permeability through the blood-brain barrier mimicking membrane: highly permeable

## Cn1nnc2c(C(N)=O)ncn2c1=O [TMZ, Temozolomide, reference compound]
GBM xenograft rat model [2]; MRI 14th vs 28th day
  tumor size: deceleration in tumor size
GBM xenograft rat model [2]; ranking
  antitumor activities, order: TR-G066> TR-G045> TR-G002>TMZ> TR-G091> TR-G053> TR-G071
NOP10
  expressions of Nopio: mild
H2A.X
  expressions of H2AX: mild
GBM xenograft rat model [3]
  cellular proliferation / mitosis: Mild
  necrotic cells (description): no observed necrotic cells
  tumor focus (description): reduction in the diameter of the tumor focus
  vascular proliferation: Mild
Ki67
  expression of Ki67: mild
CMPK2
  expression of CMPK2: mild
GFAP
  GFAP expression in astrocytes around the tumor: severe

## O=C(COc1ccc2c(c1)CCC(=O)N2)N/N=C/c1ccccc1 [TR-G035, (E)-N'-benzylidene-2-((2-oxo-1,2,3,4-tetrahydroquinolin-6-yl)oxy)acetohydrazide]
[1]
  permeability through the blood-brain barrier mimicking membrane: middle permeability

## C=CCCCOc1ccc2c(c1)CCC(=O)N2 [TR-G144, 6-(pent-4-en-i-yloxy)-3,4-dihydroquinolin-2(1H)-one]
[1]
  permeability through the blood-brain barrier mimicking membrane: highly permeable

## O=C(COc1ccc2c(c1)CCC(=O)N2)N/N=C/c1ccco1 [TR-G025, (E)-N'-(furan-2-ylmethylene)-2-((2-oxo-1,2,3,4-tetrahydroquinolin-6-yl)oxy)acetohydrazide]
[1]
  permeability through the blood-brain barrier mimicking membrane: middle permeability

## CC(C)CCOc1ccc2c(c1)CCC(=O)N2 [TR-G002, 6-(isopentyloxy)-3,4-dihydroquinolin-2(1H)-one]
[1]
  permeability through the blood-brain barrier mimicking membrane: middle permeability

## C=CCN1C(=O)CCc2cc(OCCCCc3nnnn3C3CCCCC3)ccc21 [TR-G103, 1-allyl-6-(4-(1-cyclohexyl-1H-tetrazol-5-yl)butoxy)-3,4-dihydroquinolin-2(1H)-one]
[1]
  permeability through the blood-brain barrier mimicking membrane: middle permeability
